Experimental data from US20030215451A1.
Results are given in words; binding and its absence hold for the method and conditions named. In cells and extracts the contact can be indirect. Some binding calls cover weakened binding; strength is not graded here.

By UniProt entry, the sequences of proteins in these tests, tags left out. Residues count along the entry.
UniProt Q02763, residues 23-1124: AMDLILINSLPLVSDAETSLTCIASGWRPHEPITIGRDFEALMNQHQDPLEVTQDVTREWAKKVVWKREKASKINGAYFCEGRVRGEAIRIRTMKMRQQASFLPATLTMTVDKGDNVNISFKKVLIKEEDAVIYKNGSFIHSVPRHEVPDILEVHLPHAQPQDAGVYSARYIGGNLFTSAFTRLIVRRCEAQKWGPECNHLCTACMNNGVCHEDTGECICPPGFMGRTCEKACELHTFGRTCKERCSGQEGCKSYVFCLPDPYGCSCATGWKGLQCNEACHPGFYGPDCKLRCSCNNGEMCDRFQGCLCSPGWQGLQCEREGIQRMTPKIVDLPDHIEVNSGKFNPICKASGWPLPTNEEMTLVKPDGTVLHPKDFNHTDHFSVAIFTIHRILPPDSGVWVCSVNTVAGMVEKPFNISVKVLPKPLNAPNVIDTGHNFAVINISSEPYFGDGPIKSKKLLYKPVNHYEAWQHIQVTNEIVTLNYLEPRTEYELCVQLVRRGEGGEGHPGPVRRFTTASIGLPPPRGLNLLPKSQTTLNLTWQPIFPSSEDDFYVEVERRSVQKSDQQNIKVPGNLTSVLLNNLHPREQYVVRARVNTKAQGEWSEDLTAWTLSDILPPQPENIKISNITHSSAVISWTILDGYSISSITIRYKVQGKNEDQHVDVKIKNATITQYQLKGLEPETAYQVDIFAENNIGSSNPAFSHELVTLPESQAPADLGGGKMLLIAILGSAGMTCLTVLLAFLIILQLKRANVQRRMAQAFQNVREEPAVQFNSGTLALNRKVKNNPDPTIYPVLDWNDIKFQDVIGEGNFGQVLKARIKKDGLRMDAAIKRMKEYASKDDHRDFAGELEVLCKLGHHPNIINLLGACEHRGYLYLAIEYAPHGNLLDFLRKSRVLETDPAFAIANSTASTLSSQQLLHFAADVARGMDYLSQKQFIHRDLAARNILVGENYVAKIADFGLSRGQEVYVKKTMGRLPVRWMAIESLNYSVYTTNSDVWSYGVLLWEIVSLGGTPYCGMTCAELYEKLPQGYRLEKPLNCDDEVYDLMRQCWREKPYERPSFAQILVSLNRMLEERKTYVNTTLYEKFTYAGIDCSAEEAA
UniProt O15123, residues 19-496: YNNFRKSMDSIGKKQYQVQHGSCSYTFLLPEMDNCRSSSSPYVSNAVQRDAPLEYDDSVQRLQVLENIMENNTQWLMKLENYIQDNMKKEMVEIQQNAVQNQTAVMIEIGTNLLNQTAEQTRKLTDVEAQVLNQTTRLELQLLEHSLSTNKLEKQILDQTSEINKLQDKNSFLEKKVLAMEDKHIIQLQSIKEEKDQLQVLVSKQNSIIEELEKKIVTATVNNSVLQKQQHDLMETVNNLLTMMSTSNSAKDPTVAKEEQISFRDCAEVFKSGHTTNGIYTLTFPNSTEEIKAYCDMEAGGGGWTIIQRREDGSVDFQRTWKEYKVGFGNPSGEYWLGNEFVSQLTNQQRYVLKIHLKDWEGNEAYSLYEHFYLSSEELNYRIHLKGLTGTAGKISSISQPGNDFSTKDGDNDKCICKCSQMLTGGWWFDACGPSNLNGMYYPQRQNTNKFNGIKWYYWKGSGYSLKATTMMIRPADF

Biological target: Tie2 receptor (full length receptor construct) (UniProt Q02763)
Assay: co-immunoprecipitation from co-transfected 293 cells: anti-Tie2 IP, anti-gD immunoblot

binding: binds
Substance: epitope (gD)-tagged angiopoietin 2 (from UniProt O15123 19-496) (ligand)
